Among the data in PubChem BioAssay AID2685 (National Center for Advancing Translational Sciences (NCATS), 2010) are cell number change and AC50 values, retold here.

This is one part of the list. Further columns of the screen follow, without active or inactive calls. The list favours compounds with an active or inconclusive main result. Potencies come from curve fits of mixed quality, noted in brackets.

The assay is described as follows: qHTS Assay for Lipid Storage Modulators in Drosophila S3 Cells.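 On cell number change: cells counted by Cell Tracker Red CMTPX staining in the red channel.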 The conditions noted are these: BODIPY lipid droplet fluorescence, 18-24 h; for cell number change: measured here: cell count max response, cells fed with added oleic acid. The method, boiled down: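 Drosophila S3 cells loaded with oleic acid (400 uM, as added) and compounds at several concentrations; lipid droplets imaged by 488-nm laser-scanning cytometry, 500–530 nm intensity and object ratio to cell channel. Percent activity normalized to 20 uM Triacsin C.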

The mark [1] stands for this setting: measured here: cell number channel AC50, cells fed with added oleic acid.
Where [2] appears, read: measured here: lipid fluorescence (Fed channel) AC50, cells fed with added oleic acid.

Consider `Cc1ccc(N(CC(=O)NC2CCCCC2)C(=O)CNC(=O)c2ccco2)cc1F`, for which the cell number change amounted to 38.2%. For the same compound, the AC50 under setting [1] is 29.1 µM [rising, single point]. On to `CC(NC(=O)CCNS(=O)(=O)c1ccc2c(c1)c(=O)n(C)c(=O)n2C)c1ccccc1` (stereo not given), for which the cell number change is -16.9%. In addition, the AC50 under setting [2] was 0.291 µM [falling, full curve].

On to `Cc1nn(CC(=O)NC(=O)c2ccccc2)c(C)c1[N+](=O)[O-]`, for which the cell number change was found to be 21.6%. The AC50 under setting [2] was 32.6 µM [rising, single point].

`Cc1cccc(/C(N)=N/OC(=O)CCc2ccccc2)c1`: the cell number change is -26.4%. Besides, under setting [2], the half-maximal activity concentration (AC50) is 6.51 µM [falling, full curve, poor fit]. Take `Cc1cccc(-n2c(CNC(=O)c3ccc(S(=O)(=O)N(C)C)cc3)nnc2SCC(=O)Nc2ccc(F)cc2)c1`: the cell number change was -6.68%. Under setting [1], the AC50 was 0.731 µM [rising, single point].

Turning to `CN(C)S(=O)(=O)c1cc(NC(=O)CN2CCCc3ccccc32)ccc1Cl`, the cell number change was -24.4%. For the same compound, under setting [2], the AC50 is 6.51 µM [rising, single point]. Turning to `COc1cc(C(F)(F)F)nc2ccc(C#CCOC(=O)Nc3ccccc3)cc12`, the AC50 under setting [2] was 29.1 µM [rising, single point].

With `COCCCn1c(SCc2ccc(OC)cc2)nc2cc(OC)c(OC)cc2c1=N`, the cell number change amounted to 0.169%. Further, under setting [2], the AC50 is 13 µM [falling, single point]. Regarding `CC(C)COc1ccc(C(=O)OCC(=O)NCCC2=CCCCC2)cc1`, the cell number change amounted to 44.1%. Besides, the AC50 under setting [1] is 10.3 µM [rising, partial curve]. On to `O=C(NCc1ccc(Cl)cc1Cl)C1CCN(S(=O)(=O)c2ccc3c(c2)OCCCO3)CC1`, for which the cell number change was -5.22%. The AC50 under setting [2] was 29.1 µM [falling, single point].

Consider `Cc1cc(C)n(C(=O)CSc2nc3ccccc3o2)n1`, for which the cell number change is -13.6%. Also, the AC50 under setting [2] was 0.146 µM [falling, full curve, poor fit]. With `COc1ccc(N(CC(=O)Nc2ccc(C)c(C)c2)C2=NC3CS(=O)(=O)CC3S2)cc1` (stereo not given), the cell number change was -3.75%. In addition, the AC50 under setting [2] is 1.46 µM [rising, partial curve, poor fit]. Consider `Cc1ccc2sc(N(CCCN(C)C)C(=O)c3ccc(S(=O)(=O)N(C)Cc4ccccc4)cc3)nc2c1C`, for which the cell number change is -80.4%. In addition, the half-maximal activity concentration (AC50) under setting [1] was 14.6 µM [falling, partial curve].

In the case of `COc1ccc(OC)c(S(=O)(=O)Nc2ccc(C)c(C)c2)c1`, the AC50 reads like this: under setting [1], 0.116 µM [rising, full curve, poor fit]; under setting [2], 3.66 µM [rising, partial curve, poor fit]. In the case of `c1ccc(-c2cncnc2)nc1`, the cell number change was -2.82%. For the same compound, the AC50 under setting [2] is 2.31 µM [rising, partial curve, poor fit].

With `CCn1cc(C(=O)N(CCCN2CCOCC2)Cc2ccco2)c(=O)c2ccc(C)nc21`, the AC50 reads like this: under setting [1], 6.51 µM [falling, single point]; under setting [2], 6.51 µM [falling, single point]. `CCCNS(=O)(=O)c1ccc(Oc2ncc(C(F)(F)F)cc2Cl)cc1`: the cell number change was -13.7%. Also, the AC50 under setting [2] is 29.1 µM [falling, single point]. As to `Cc1ccc(S(=O)(=O)Nc2ccc(=O)n(Cc3ccc(Cl)c(Cl)c3)c2)cc1`, the cell number change was -6.97%. As for `COc1ccc(/C=C/C(=O)NCCCN2CCCC2)cc1`, under setting [2], the AC50 was 0.146 µM [rising, partial curve, poor fit].

On to `CC(=O)OCC(=O)C1CCC2C3CC=C4CC(O)CCC4(C)C3CCC12C` (stereo not given), for which the cell number change is -23.7%. The AC50 under setting [2] is 5.8 µM [falling, full curve, poor fit].

In the case of `COc1ccc([C@@H]2[C@@H]3C(=O)N(C(C)(C)C)C(=O)[C@@H]3[C@]3(CC(C)C)C(=O)N(c4cccc(Br)c4)C(=O)N23)cc1`, the cell number change was determined as 27.5%. Further, under setting [2], the AC50 is 29.1 µM [rising, single point].

For the compound `NS(=O)(=O)c1cc(C(=O)OCC(=O)c2ccc3c(c2)OCCO3)ccc1Cl`, the cell number change came out at 37.2%. Further, the AC50 under setting [1] was 20.6 µM [rising, partial curve, poor fit].

For `O=S(=O)(c1ccc(NC(=S)N/N=C/c2cccc(Oc3ccccc3)c2)cc1)N1CCOCC1`, the cell number change was -37.6%. As for `CC(C)(C)OC(=O)N1CC(O)CC1C(=O)OCC(=O)c1ccc(Cl)cc1` (stereo not given), the cell number change amounted to 34.8%. Also, under setting [1], the AC50 is 32.6 µM [rising, single point]. In addition, the AC50 under setting [2] was 0.517 µM [falling, partial curve]. On to `O=C(Nc1ccc(S(=O)(=O)NC2=NCCCCC2)cc1)c1cc(S(=O)(=O)N2CCOCC2)ccc1F`, for which the cell number change is -10.8%. For the compound `CN1/C(=C\C(=O)COc2ccc3c(c2)OCO3)C(C)(C)c2ccccc21`, the cell number change was -42.5%. Further, the AC50 under setting [1] is 29.1 µM [falling, single point]. For the same compound, the concentration at half-maximal activity (AC50) under setting [2] was 0.731 µM [rising, partial curve]. With `O=C(Nc1ccc(CN2CCOCC2)cc1)c1ccc(-c2cccc(Cl)c2)o1`, the cell number change was -5.38%. Besides, under setting [2], the AC50 is 6.51 µM [rising, single point].

`CC(O)c1ccc(-n2cnnn2)cc1` (stereo not given): the AC50 under setting [2] was 29.1 µM [falling, single point]. Regarding `O=C(/C=C/c1ccccc1[N+](=O)[O-])c1ccc(F)cc1`, the cell number change is -37.5%. Also, the AC50 under setting [1] is 0.82 µM [falling, full curve, poor fit]. The AC50 under setting [2] is 18.4 µM [falling, partial curve, poor fit]. With `Cc1cccc(C(=O)N2N=C(c3ccc(NS(C)(=O)=O)cc3)CC2c2cccs2)c1` (stereo not given), the cell number change was found to be 2.78%. The AC50 under setting [2] was 6.51 µM [rising, single point]. On to `Cc1cc(NC(=O)C(C)SCC(=O)Nc2ccccc2C(C)(C)C)no1` (stereo not given), for which the cell number change is 23.1%. The AC50 under setting [2] is 3.66 µM [rising, partial curve, poor fit].

Turning to `O=C(COC(=O)c1ccc2c(c1)OCCO2)NCCC1=CCCCC1`, the cell number change was -0.975%. For the same compound, under setting [2], the AC50 is 23.1 µM [falling, single point]. Turning to `CC(C)NC(=O)NC(=O)COC(=O)c1ccc([N+](=O)[O-])cc1Cl`, the cell number change is -46.9%. Under setting [1], the AC50 is 23.1 µM [falling, single point]. Turning to `CN(C)S(=O)(=O)c1ccc(N=Cc2c(C(F)(F)F)[nH][nH]c2=O)cc1`, the cell number change was -12.3%. Also, the AC50 under setting [1] was 5.8 µM [falling, single point]. Regarding `CCOc1ccc(C2CC(c3cccc(OC)c3)Nc3ncnn32)cc1` (stereo not given), the cell number change amounted to 10.3%. Besides, the AC50 under setting [2] is 20.6 µM [rising, single point]. On to `NNC(=O)c1nn(-c2ccc(Cl)cc2)cc1O`, for which the cell number change stood at 22.1%. Besides, the AC50 under setting [1] is 1.46 µM [rising, full curve, poor fit]. Also, the AC50 under setting [2] was 1.84 µM [rising, partial curve].
